PubChem BioAssay AID1259308 – NCATS, 2017

Assay: 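Genes whose loss raises luciferase production in HEK293 cells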 (primary screen)
Cells: human HEK293 embryonic kidney cells stably expressing firefly luciferase (HEK-CMV-Luc2-Hygro)
Reagent: single siRNA against human genes, 0.8 pmol siRNA per well
Time to read-out: 72 h
Detection: 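Reporter luminescence and viable-cell signal on separate replicate plates, given as percent of non-targeting control and median/MAD z-scores, plus per-cell luciferase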
Direction: total luciferase, z-score and total luciferase, % of control: higher = more reporter protein produced; luciferase per cell, z-score: higher = more reporter output per viable cell; viable cells, % of control: higher = more viable cells
Active means: 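Active when the median/MAD z-score for overall luciferase is greater than 3; a gene was taken forward for validation with new siRNAs if at least two of its three siRNAs passed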
Meaning of the calls: active = raised luciferase; inactive = no rise
The deposit covers about 59,000 reagents; below is an unselected part. Over the whole deposit, about 1,510 (2.6%) were called active. 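Calls use total luciferase alone and ignore viability, so some active siRNAs may act by altering cell number.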

no.	target gene	PubChem SID	total luciferase, z-score	total luciferase, % of control	luciferase per cell, z-score	viable cells, % of control	Outcome
1	RUBCNL (rubicon like autophagy enhancer)	SID160750171	0.521	92.2	0.182	98.3	inactive
2	RUBCNL (rubicon like autophagy enhancer)	SID160750172	-0.752	66.9	-0.851	93.6	inactive
3	RUBCNL (rubicon like autophagy enhancer)	SID160750173	-0.19	78.1	-0.605	102	inactive
4	ADARB2-AS1 (ADARB2 antisense RNA 1)	SID160725540	-0.595	70	-0.685	93.7	inactive
5	ADARB2-AS1 (ADARB2 antisense RNA 1)	SID160768601	1.21	106	1.21	86.1	inactive
6	ADARB2-AS1 (ADARB2 antisense RNA 1)	SID160768603	0.649	94.8	0.969	82.1	inactive
7	NOS1 (nitric oxide synthase 1)	SID160778131	-0.0503	80.9	0.142	87.1	inactive
8	NOS1 (nitric oxide synthase 1)	SID160778132	-1.07	60.6	1.06	51.2	inactive
9	NOS1 (nitric oxide synthase 1)	SID160778133	-1.55	51	-1.71	89.5	inactive
10	GRM6 (glutamate metabotropic receptor 6)	SID160774592	1.11	104	0.429	104	inactive
11	GRM6 (glutamate metabotropic receptor 6)	SID160774593	1.66	115	1.3	91.1	inactive
12	GRM6 (glutamate metabotropic receptor 6)	SID160774594	0.784	97.5	0.186	104	inactive
13	GLP2R (glucagon like peptide 2 receptor)	SID160721981	0.218	86.2	0.436	85.9	inactive
14	GLP2R (glucagon like peptide 2 receptor)	SID160721982	-0.135	79.2	-0.49	101	inactive
15	GLP2R (glucagon like peptide 2 receptor)	SID160721983	-0.216	77.6	-0.966	112	inactive
16	BNIP5 (BCL2 interacting protein 5)	SID160766185	-0.437	73.2	-0.203	86.3	inactive
17	BNIP5 (BCL2 interacting protein 5)	SID160766186	-0.952	62.9	-0.209	74.3	inactive
18	BNIP5 (BCL2 interacting protein 5)	SID160766187	-1.66	49	-1.21	75.2	inactive
19	DNAAF8 (dynein axonemal assembly factor 8)	SID160758381	1.84	119	1.19	96.9	inactive
20	DNAAF8 (dynein axonemal assembly factor 8)	SID160758382	0.4	89.8	0.56	86.6	inactive
21	DNAAF8 (dynein axonemal assembly factor 8)	SID160758383	-0.654	68.9	-0.123	79.5	inactive
22	DCLK2 (doublecortin like kinase 2)	SID160760209	-0.817	65.6	-0.731	88.9	inactive
23	DCLK2 (doublecortin like kinase 2)	SID160760210	0.326	88.4	0.361	89.8	inactive
24	DCLK2 (doublecortin like kinase 2)	SID160760211	-1.24	57.3	-1.68	99.8	inactive
25	MCRIP2 (MAPK regulated corepressor interacting protein 2)	SID160724616	-0.484	72.3	-0.424	90.3	inactive
26	MCRIP2 (MAPK regulated corepressor interacting protein 2)	SID160752176	-0.153	78.8	-0.152	91.7	inactive
27	MCRIP2 (MAPK regulated corepressor interacting protein 2)	SID160752177	-0.506	71.8	-1.12	108	inactive
28	SERINC3 (serine incorporator 3)	SID160729616	-0.737	67.2	-0.0675	76.5	inactive
29	SERINC3 (serine incorporator 3)	SID160729617	-0.77	66.6	-1.46	109	inactive
30	SERINC3 (serine incorporator 3)	SID160729618	0.576	93.3	0.16	100	inactive
31	MCOLN3 (mucolipin TRP cation channel 3)	SID160743432	-0.173	78.4	-0.606	103	inactive
32	MCOLN3 (mucolipin TRP cation channel 3)	SID160743433	-1.15	59	-1.58	100	inactive
33	MCOLN3 (mucolipin TRP cation channel 3)	SID160743434	-0.938	63.2	-1.3	99.6	inactive
34	NOC4L (nucleolar complex associated 4 homolog)	SID160748541	-0.567	70.6	-0.807	97.6	inactive
35	NOC4L (nucleolar complex associated 4 homolog)	SID160748542	-0.616	69.6	-0.164	81.2	inactive
36	NOC4L (nucleolar complex associated 4 homolog)	SID160748543	-0.392	74.1	-0.11	85.2	inactive
37	OTOL1 (otolin 1)	SID160757041	-0.421	73.5	-0.141	85.2	inactive
38	OTOL1 (otolin 1)	SID160757042	-0.829	65.4	-1.07	96.8	inactive
39	OTOL1 (otolin 1)	SID160757043	2.06	123	1.75	86.6	inactive
40	SNX14 (sorting nexin 14)	SID160745861	0.0532	82.9	-0.201	97.7	inactive
41	SNX14 (sorting nexin 14)	SID160745862	-0.0434	81	0.514	79.1	inactive
42	SNX14 (sorting nexin 14)	SID160745863	-0.178	78.4	0.0568	86.3	inactive
43	LSM10 (LSM10, U7 small nuclear RNA associated)	SID160735132	-0.204	77.8	-0.492	99	inactive
44	LSM10 (LSM10, U7 small nuclear RNA associated)	SID160753058	-1.66	48.8	-0.932	69.7	inactive
45	LSM10 (LSM10, U7 small nuclear RNA associated)	SID160753059	-0.787	66.2	-0.68	88.5	inactive
46	NUDCD3 (NudC domain containing 3)	SID160736166	1.03	102	1.04	87	inactive
47	NUDCD3 (NudC domain containing 3)	SID160736168	-0.355	74.8	0.0164	83.3	inactive
48	NUDCD3 (NudC domain containing 3)	SID160736169	-1.97	42.7	-1.9	78.8	inactive
49	AQP10 (aquaporin 10)	SID160753477	-0.236	77.2	-0.18	90.4	inactive
50	AQP10 (aquaporin 10)	SID160753478	-1.79	46.4	-1.08	68.9	inactive
51	AQP10 (aquaporin 10)	SID160753479	-0.233	77.3	-0.812	107	inactive
52	ZNF671 (zinc finger protein 671)	SID160749709	-0.33	75.3	-0.306	91.2	inactive
53	ZNF671 (zinc finger protein 671)	SID160749710	-0.211	77.7	-0.565	101	inactive
54	ZNF671 (zinc finger protein 671)	SID160749711	0.705	95.9	0.0877	105	inactive
55	ASB9P1 (ankyrin repeat and SOCS box containing 9 pseudogene 1)	SID160771966	2.23	126	1.32	99.5	inactive
56	ASB9P1 (ankyrin repeat and SOCS box containing 9 pseudogene 1)	SID160771967	0.674	95.3	1.71	67.9	inactive
57	ASB9P1 (ankyrin repeat and SOCS box containing 9 pseudogene 1)	SID160771968	-1.72	47.7	-2.52	103	inactive
58	PYM1 (PYM1 exon junction complex associated factor)	SID160752114	-0.467	72.6	0.451	72	inactive
59	PYM1 (PYM1 exon junction complex associated factor)	SID160752115	-0.895	64.1	-1	93.3	inactive
60	PYM1 (PYM1 exon junction complex associated factor)	SID160752116	-0.679	68.4	0.194	72.6	inactive
61	LLPHP3 (LLPH pseudogene 3)	SID160734003	-0.248	77	-0.0619	87.4	inactive
62	LLPHP3 (LLPH pseudogene 3)	SID160734004	-1.31	55.8	-1.67	96.7	inactive
63	LLPHP3 (LLPH pseudogene 3)	SID160769964	0.985	101	1.94	68.1	inactive
64	GMNN (geminin DNA replication inhibitor)	SID160739924	-0.416	73.6	-0.353	90.3	inactive
65	GMNN (geminin DNA replication inhibitor)	SID160739925	-0.733	67.3	-0.617	88.5	inactive
66	GMNN (geminin DNA replication inhibitor)	SID160739926	0.273	87.3	0.546	84.5	inactive
67	CCSER1 (coiled-coil serine rich protein 1)	SID160767170	3.15	145	3.57	63.1	active
68	CCSER1 (coiled-coil serine rich protein 1)	SID160767171	0.313	88.1	0.522	85.8	inactive
69	CCSER1 (coiled-coil serine rich protein 1)	SID160767172	0.739	96.6	0.442	96.1	inactive
70	OVCH1 (ovochymase 1)	SID160764535	1.06	103	0.717	95.2	inactive
71	OVCH1 (ovochymase 1)	SID160764537	0.387	89.6	0.241	94	inactive
72	OVCH1 (ovochymase 1)	SID160764538	1.95	121	1.34	94.6	inactive
73	COL12A1 (collagen type XII alpha 1 chain)	SID160746442	0.308	88	0.256	91.9	inactive
74	COL12A1 (collagen type XII alpha 1 chain)	SID160746453	-0.00431	81.8	0.681	76.4	inactive
75	COL12A1 (collagen type XII alpha 1 chain)	SID160746464	1.55	113	1.74	79.6	inactive

5 of these entries in another layout:
{"target gene": "OTOL1 (otolin 1)", "PubChem SID": "SID160757042", "total luciferase, z-score": -0.829, "total luciferase, % of control": 65.4, "luciferase per cell, z-score": -1.07, "viable cells, % of control": 96.8, "Outcome": "inactive"}
{"target gene": "OTOL1 (otolin 1)", "PubChem SID": "SID160757043", "total luciferase, z-score": 2.06, "total luciferase, % of control": 123, "luciferase per cell, z-score": 1.75, "viable cells, % of control": 86.6, "Outcome": "inactive"}
{"target gene": "SNX14 (sorting nexin 14)", "PubChem SID": "SID160745861", "total luciferase, z-score": 0.0532, "total luciferase, % of control": 82.9, "luciferase per cell, z-score": -0.201, "viable cells, % of control": 97.7, "Outcome": "inactive"}
{"target gene": "SNX14 (sorting nexin 14)", "PubChem SID": "SID160745862", "total luciferase, z-score": -0.0434, "total luciferase, % of control": 81, "luciferase per cell, z-score": 0.514, "viable cells, % of control": 79.1, "Outcome": "inactive"}
{"target gene": "SNX14 (sorting nexin 14)", "PubChem SID": "SID160745863", "total luciferase, z-score": -0.178, "total luciferase, % of control": 78.4, "luciferase per cell, z-score": 0.0568, "viable cells, % of control": 86.3, "Outcome": "inactive"}
